# PubChem BioAssay AID504804 | Drosophila RNAi Screening Center, 2011
# Purpose: 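Knock-downs shielding fly cells from apoptosis caused by DNA damage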 (primary screen)
# Cell system: Drosophila Kc cells
# Reagents: long dsRNA against Drosophila genes, 0.5 µg dsRNA per well
# Timing: 96 h (48 h knock-down, then 48 h drug)
# Treatment: doxorubicin 5 µg/ml for 48 h, added 48 h after dsRNA
# Detection: 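Viability measured as cellular ATP by luminescence after 48 h knock-down then 48 h doxorubicin at 5 µg/ml; unnormalised plate counts for each replicate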
# Reading the numbers: raw ATP luminescence: higher = more viable cells, protection from doxorubicin
# Rule for the call: 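z-score of 2 or more over plate mean in both duplicates, retained only when retests and separate dsRNAs confirm the protection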
# The screen tested about 19,000 reagents; below is an unselected part of those with a known target gene and a result. In the full data, 47 (0.25%) were called active. 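Signals are raw, not normalised; exact z-scores behind calls not deposited; actives needed confirmation, so some wells reaching 2 SD are inactive.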 Names joined by + are all predicted targets of the reagent.
gene,amplicon,"raw ATP luminescence, replicate 1","raw ATP luminescence, replicate 2",outcome
CG3021,DRSC18165,41300,41220,inactive
CG3021,DRSC18652,36540,54350,inactive
CG9782,DRSC19145,1.69e5,1.79e5,inactive
CG9782,DRSC20209,2.91e5,2.62e5,inactive
Nf-YC (Nuclear factor Y-box C),DRSC18272,8940,11060,inactive
Ankle2,DRSC20106,3.03e5,3.32e5,inactive
Vha16-3 (Vacuolar H[+] ATPase 16kD subunit 3),DRSC10872,75563,56190,inactive
mats (mob as tumor suppressor),DRSC13562,2.44e5,2.29e5,inactive
mats (mob as tumor suppressor),DRSC14702,48957,47987,inactive
ND-20L (NADH dehydrogenase (ubiquinone) 20 kDa subunit-like),DRSC15414,67630,47780,inactive
kkv (krotzkopf verkehrt),DRSC12315,67753,29767,inactive
CG13705,DRSC08314,83663,85100,inactive
Grx1 (Glutaredoxin 1),DRSC10727,47343,31210,inactive
CG15473,DRSC18056,40930,51340,inactive
lin-52,DRSC18106,39340,39370,inactive
Cyp6d2 (Cytochrome P450 6d2),DRSC04606,70057,46140,inactive
MstProx + Mst84Da,DRSC12597,59153,63913,inactive
eys (eyes shut),DRSC00113,2.20e5,2.05e5,inactive
eys (eyes shut),DRSC00695,1.16e5,82963,inactive
wal (walrus),DRSC07717,71563,65160,inactive
CG12057,DRSC17797,4.54e5,3.51e5,inactive
Cyp4e3 (Cytochrome P450 4e3),DRSC03306,35127,63693,inactive
Egfr (Epidermal growth factor receptor),DRSC03871,71620,83327,inactive
Egfr (Epidermal growth factor receptor),DRSC04613,78003,61770,inactive
CG42262 (retired record),DRSC17628,1.63e5,1.51e5,inactive
CG42262 (retired record),DRSC17974,3.94e5,4.03e5,inactive
Eig71Ei,DRSC11156,62950,63260,inactive
CG6414,DRSC18401,25070,36260,inactive
Cpr65Av (Cuticular protein 65Av),DRSC09727,76160,77523,inactive
AnxB9 (Annexin B9),DRSC14111,40393,37490,inactive
CG32436,DRSC11683,63310,65963,inactive
CG32436,DRSC11796,66740,56057,inactive
CG15177,DRSC12557,67483,60723,inactive
CG5214,DRSC15739,64210,52613,inactive
"ScsbetaA (Succinyl-coenzyme A synthetase beta subunit, ADP-forming)",DRSC14446,50500,24443,inactive
qvr (quiver),DRSC05280,75567,73920,inactive
Roe1,DRSC07534,59173,67560,inactive
Lrrk (Leucine-rich repeat kinase),DRSC15816,61180,64340,inactive
Cnep1r1 (CTD nuclear envelope phosphatase 1 regulatory subunit 1),DRSC20620,4.06e5,3.04e5,inactive
CG42337,DRSC11686,63180,51567,inactive
CG42337,DRSC11687,27723,31270,inactive
Or42b (Odorant receptor 42b),DRSC04913,46050,59080,inactive
d-cup (davis-cup),DRSC14846,47037,45773,inactive
CG11977,DRSC14454,63013,63230,inactive
Dgkepsilon (Diacyl glycerol kinase epsilon),DRSC07399,58620,45507,inactive
Srp19 (Signal recognition particle 19),DRSC11288,66973,81303,inactive
RunxA (Runt related A),DRSC20400,1.94e5,1.91e5,inactive
RunxA (Runt related A),DRSC20498,2.59e5,2.44e5,inactive
RunxA (Runt related A),DRSC20524,3.10e5,3.01e5,inactive
Cyp28d2 (Cytochrome P450 28d2),DRSC03299,23160,35633,inactive
CG4592,DRSC02761,1.13e5,66703,inactive
Odc1 (Ornithine decarboxylase 1),DRSC07482,61510,47697,inactive
zda (zonda),DRSC06936,66177,46367,inactive
Or67b (Odorant receptor 67b),DRSC11241,86710,73847,inactive
CG15198,DRSC19645,3.54e5,3.45e5,inactive
mbl (muscleblind),DRSC05657,1.24e5,1.03e5,inactive
mbl (muscleblind),DRSC06449,50410,79820,inactive
Slbp (Stem-loop binding protein),DRSC16863,36670,41280,inactive
Hsc70-3 (Heat shock protein 70 cognate 3),DRSC20253,2.20e5,2.29e5,inactive
CSN8 (COP9 signalosome subunit 8),DRSC02257,1.20e5,75983,inactive
CG17380,DRSC15230,64490,67050,inactive
Syt12 (Synaptotagmin 12),DRSC19359,3.72e5,3.35e5,inactive
CG31106,DRSC14655,90790,95940,inactive
Dim1,DRSC00563,22773,21083,inactive
zyd (zydeco),DRSC20716,3.05e5,2.93e5,inactive
smash (smallish),DRSC12139,23263,20170,inactive
smash (smallish),DRSC12239,67337,51233,inactive
"E(spl)m3-HLH (Enhancer of split m3, helix-loop-helix)",DRSC16694,18440,22180,inactive
CG15472,DRSC18055,35300,45700,inactive
Cht2 (Chitinase 2),DRSC08650,68893,52407,inactive
CG10749,DRSC09798,82100,90680,inactive
beta-Man (beta-Mannosidase),DRSC12208,24767,29140,inactive
beta-Man (beta-Mannosidase),DRSC12209,79280,63750,inactive
CG13658,DRSC14659,67520,72270,inactive
"Pka-C1 (Protein kinase, cAMP-dependent, catalytic subunit 1)",DRSC03399,1.07e5,72023,inactive
CG1824,DRSC19796,2.69e5,2.74e5,inactive
CG5644,DRSC10531,67050,85083,inactive
Cndp2 (Cytosolic non-specific dipeptidase 2),DRSC04873,44710,50357,inactive
PGRP-LD + Pmi,DRSC10512,56047,67973,inactive
PGRP-LD + Pmi,DRSC10513,63477,93253,inactive
thoc6,DRSC10528,31147,35187,inactive
CNT1 + CG13742,DRSC06413,48683,73700,inactive
Or10a (Odorant receptor 10a),DRSC20264,2.92e5,2.77e5,inactive
Sesn (Sestrin),DRSC04101,64823,74340,inactive
Sesn (Sestrin),DRSC04102,58837,57670,inactive
Sesn (Sestrin),DRSC04103,68317,55683,inactive

Sorted by “raw ATP luminescence, replicate 2” (highest first): 6 of the entries above.
gene,amplicon,"raw ATP luminescence, replicate 1","raw ATP luminescence, replicate 2",outcome
CG10749,DRSC09798,82100,90680,inactive
CG13658,DRSC14659,67520,72270,inactive
"Pka-C1 (Protein kinase, cAMP-dependent, catalytic subunit 1)",DRSC03399,1.07e5,72023,inactive
beta-Man (beta-Mannosidase),DRSC12209,79280,63750,inactive
Cht2 (Chitinase 2),DRSC08650,68893,52407,inactive
beta-Man (beta-Mannosidase),DRSC12208,24767,29140,inactive
